Source: patent US20210187014A1 (The Regents of the University of Colorado, a body corporate, priority 2018, published 2021)
At least one compound was matched to its structure with a doubt left.

Test system: HEK293 cells
Test: Cellular iron level by Calcein AM fluorescence in HEK293 cells +/- iron chelator DFO
Assay type: cell-based, human
Conditions: chelator added to the medium
Experimental: Here, a similar test was done in human HEK293 cells. […] The present inventors then created a low-iron condition by adding an iron chelator, Deferoxamine (DFO) to the medium (FIG. 18A). […] The assay was also performed using mouse intestinal epithelial (MODE-K) cells.

Q: For `CC(=O)N(O)CCCCCNC(=O)CCC(=O)N(O)CCCCCNC(=O)CCC(=O)N(O)CCCCCN` [Deferoxamine (DFO), Deferoxamine, reference compound], which “iron level in cells (Calcein AM)” value is on record?
A: significantly decreased
